These results are taken from PMC7244589.

The target of series [1] is T1, FLAG-hnRNP F (UniProt P52597).
T1 sequence (looked up, limits assumed): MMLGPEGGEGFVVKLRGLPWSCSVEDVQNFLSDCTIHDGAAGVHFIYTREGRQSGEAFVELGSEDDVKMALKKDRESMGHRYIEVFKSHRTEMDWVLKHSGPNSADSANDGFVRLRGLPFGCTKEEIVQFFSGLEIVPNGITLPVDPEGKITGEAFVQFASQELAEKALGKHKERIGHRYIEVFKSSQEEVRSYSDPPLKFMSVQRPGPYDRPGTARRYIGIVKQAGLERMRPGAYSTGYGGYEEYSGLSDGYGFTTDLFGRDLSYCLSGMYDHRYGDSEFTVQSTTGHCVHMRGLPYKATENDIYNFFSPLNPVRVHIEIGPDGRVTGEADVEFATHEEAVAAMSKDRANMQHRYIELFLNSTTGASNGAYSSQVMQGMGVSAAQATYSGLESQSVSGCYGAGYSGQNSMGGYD
Nature of the series: pull-down. To be noted: pull-down: HeLa whole cell extract, streptavidin beads, salt and pH not given, protein in a lysate after overexpression, protein details: FLAG, letters put together from the description.

The target in series [2] is T2, FLAG-hnRNP H1 (UniProt P31943).
T2 sequence (looked up, limits assumed): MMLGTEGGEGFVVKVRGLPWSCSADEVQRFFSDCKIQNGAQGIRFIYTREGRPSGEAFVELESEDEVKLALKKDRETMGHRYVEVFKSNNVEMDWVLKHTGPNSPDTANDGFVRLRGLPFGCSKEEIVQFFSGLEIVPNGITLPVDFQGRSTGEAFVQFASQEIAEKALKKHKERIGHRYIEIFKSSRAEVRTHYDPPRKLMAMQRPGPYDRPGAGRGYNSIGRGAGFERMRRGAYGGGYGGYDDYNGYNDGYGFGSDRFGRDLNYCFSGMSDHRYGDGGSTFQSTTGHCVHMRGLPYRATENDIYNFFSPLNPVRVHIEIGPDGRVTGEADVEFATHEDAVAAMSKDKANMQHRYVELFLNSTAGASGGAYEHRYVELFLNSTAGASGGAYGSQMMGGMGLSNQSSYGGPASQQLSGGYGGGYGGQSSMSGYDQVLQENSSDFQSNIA
In words: pull-down. To be noted: pull-down: HeLa whole cell extract, streptavidin beads, salt and pH not given, protein in a lysate after overexpression, protein details: FLAG, letters put together from the description.

For series [3], the target named is T3, FLAG-hnRNP H2 (UniProt P55795).
T3 sequence (looked up, limits assumed): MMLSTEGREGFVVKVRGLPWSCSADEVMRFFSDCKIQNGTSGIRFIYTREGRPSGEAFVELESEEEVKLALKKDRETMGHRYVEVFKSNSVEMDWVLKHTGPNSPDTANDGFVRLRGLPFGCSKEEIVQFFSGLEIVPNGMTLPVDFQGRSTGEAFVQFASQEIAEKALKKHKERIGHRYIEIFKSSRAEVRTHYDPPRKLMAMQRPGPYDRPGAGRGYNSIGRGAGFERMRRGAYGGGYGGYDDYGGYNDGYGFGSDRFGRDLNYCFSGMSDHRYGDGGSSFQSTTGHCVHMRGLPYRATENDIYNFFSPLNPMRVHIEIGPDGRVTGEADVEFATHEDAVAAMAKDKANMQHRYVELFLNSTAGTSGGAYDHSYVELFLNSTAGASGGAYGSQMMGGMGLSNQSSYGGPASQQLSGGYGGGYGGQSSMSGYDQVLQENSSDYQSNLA
In words: pull-down. The note with it: pull-down: HeLa whole cell extract, streptavidin beads, salt and pH not given, protein in a lysate after overexpression, protein details: FLAG, letters put together from the description.

For series [4], the target named is GST-hnRNP F (UniProt P52597). Nature of the series: EMSA. The note with it: RNA EMSA: LightShift REMSA kit, 1.5 nM biotin RNA, 30 min room temperature, 4% native PAGE; recombinant protein; protein details: GST; label: biotin; probe letters rebuilt from the primers and the genome; part of a longer molecule. In general terms: Mobility shift assays separate free from complexed probe on a gel.

In series [5] the target is GST-hnRNP H1 (UniProt P31943). Nature of the series: EMSA. To be noted: RNA EMSA: LightShift REMSA kit, 1.5 nM biotin RNA, 30 min room temperature, 4% native PAGE; recombinant protein; protein details: GST; label: biotin; probe letters rebuilt from the primers and the genome; part of a longer molecule.
Series [6] deals with GST-hnRNP H2 (UniProt P55795). Nature of the series: EMSA. To be noted: RNA EMSA: LightShift REMSA kit, 1.5 nM biotin RNA, 30 min room temperature, 4% native PAGE; recombinant protein; protein details: GST; label: biotin; probe letters rebuilt from the primers and the genome; part of a longer molecule.
Where [7] appears, read: almost completely lost, label: 3' biotin.

Construct, isoform or probe ends are uncertain for at least one entry. Weaker means in comparison with the reference protein, sequence or condition of that experiment. For part of these data: At least one result comes from cells or an extract, where the contact may be indirect. For part of these data: A negative result means that nothing was seen under these conditions. For part of these data: Where a protein sequence is shown, tags need not be part of it.

GGGUUGCGGA [F30 1-10]: the binding result in series [1] (setting [7]), in series [2] (setting [7]) and in series [3] (setting [7]) was “no binding” throughout.
For GGGUUGCGGAGGGU [F30 1-14], the binding result in series [1] (setting [7]), in series [2] (setting [7]) and in series [3] (setting [7]) was “no binding” each time.
Regarding GGGUUGCGGAGGGUGGGC [F30 1-18], the binding result in series [1] (label: 3' …), in series [2] (label: 3' …) and in series [3] (label: 3' …) was “binds more weakly” each time.
Regarding GGGUUGCGGAGGGUGGGCCUGGGA [F30 1-24], the binding result in series [1] (label: 3' …), in series [2] (label: 3' …) and in series [3] (label: 3' …) was “binds” in each case.
On to “GUUGCGGAGGGUGGGCCUGGGAGGGGUGGUGGCCAUUUUUUGUCUAACCCUAACUGAGAAGGGCGUAGGCGCCGUGCUUUUGCUCCCCGCGCGCUGUUUUUCUCGCUGACUUUCAGCGGGCGGAAAAGCCUCGGCCUGCCGCCUUCCACCGUUCAUUCUAGAGCAAACAAAAAAUGUCAGCUGCUGGCCCGUUCGCCCCUCCCGGGGACCUGCGGCGGGUCGCCUGCCCAGCCCCCGAACCCCGCCUGGAGGCCGCGGUCGGCCCGGGGCUUCUCCGGAGGCACCCACUGCCACCGCGAAGAGUUGGGCUCUGUCAGCCGCGGGUCUCUCGGGGGCGAGGGCGAGGUUCAGGCCUUUCAGGCCGCAGGAAGAGGAACGGAGCGAGUCCCCGCGCGCGGCGCGAUUCCCUGAGCUGUGGGACGUGCACCCAGGACUCGGCUCACACAUGC [M1]”, for which the binding result in series [4], in series [5] and in series [6] was “binds more weakly” each time.
